The text below walks through data of publication PMC6754406, “Ran pathway-independent regulation of mitotic Golgi disassembly by Importin-α” (Nature Communications, 2019).

Results are given in words; binding and its absence hold for the method and conditions named. Binding seen in cells or lysates may run through a third protein. Some results given as binding are weak or reduced against the parent protein; the word gives no strength.

In experiment [1] the target is T1, GM130, endogenous in wild-type HEK293T cells (human (endogenous in HEK293T)) (UniProt Q08379).
T1 sequence: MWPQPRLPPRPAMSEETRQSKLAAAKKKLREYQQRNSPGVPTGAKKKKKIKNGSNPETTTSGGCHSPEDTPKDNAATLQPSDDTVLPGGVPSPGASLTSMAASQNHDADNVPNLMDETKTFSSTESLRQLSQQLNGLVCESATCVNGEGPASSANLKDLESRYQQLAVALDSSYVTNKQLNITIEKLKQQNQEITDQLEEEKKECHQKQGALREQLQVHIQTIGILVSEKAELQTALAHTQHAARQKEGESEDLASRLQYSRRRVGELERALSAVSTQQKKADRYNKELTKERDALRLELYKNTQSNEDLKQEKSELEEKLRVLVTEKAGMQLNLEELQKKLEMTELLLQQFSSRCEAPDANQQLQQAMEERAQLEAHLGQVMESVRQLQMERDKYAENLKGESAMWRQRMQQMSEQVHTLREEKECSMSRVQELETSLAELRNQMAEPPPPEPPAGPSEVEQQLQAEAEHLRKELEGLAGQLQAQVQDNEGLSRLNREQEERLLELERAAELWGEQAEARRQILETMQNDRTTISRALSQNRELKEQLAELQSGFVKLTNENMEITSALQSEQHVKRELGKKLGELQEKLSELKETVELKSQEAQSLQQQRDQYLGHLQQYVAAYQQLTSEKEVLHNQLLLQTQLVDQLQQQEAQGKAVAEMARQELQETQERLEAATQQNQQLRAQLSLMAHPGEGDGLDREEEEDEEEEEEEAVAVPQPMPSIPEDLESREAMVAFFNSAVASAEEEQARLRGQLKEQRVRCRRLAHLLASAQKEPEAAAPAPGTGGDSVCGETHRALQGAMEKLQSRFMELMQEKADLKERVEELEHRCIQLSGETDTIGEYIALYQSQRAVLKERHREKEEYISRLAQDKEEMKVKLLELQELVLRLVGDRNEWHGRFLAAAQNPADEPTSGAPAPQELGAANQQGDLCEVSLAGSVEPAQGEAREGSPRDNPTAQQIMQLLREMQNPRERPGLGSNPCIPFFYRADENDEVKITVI
As to the kind of experiment: co-IP; GM130 antibody (Abcam ab52649) on lysates of nocodazole-arrested wild-type or K34A mutant HEK293T cells, also with the Cdk1 inhibitor RO-3306; Western blot for GM130, Importin-α and p115. Background: Immunoblotting shows a protein as a band on a membrane.

Experiment [2] has as its target T1, GM130, endogenous in wild-type HEK293T cells (human (endogenous in HEK293T)). As to the kind of experiment: proximity ligation; Duolink with GM130 and p115 antibodies on fixed HEK293T cells; interphase cells.
For experiment [3] the target is unchanged. Description: proximity ligation; Duolink with GM130 and p115 antibodies on fixed HEK293T cells; nocodazole-arrested mitotic cells.

B1: p115, endogenous in HEK293T cells (protein, UniProt O60763 1-962)
chain: MNFLRGVMGGQSAGPQHTEAETIQKLCDRVASSTLLDDRRNAVRALKSLSKKYRLEVGIQAMEHLIHVLQTDRSDSEIIGYALDTLYNIISNEEEEEVEENSTRQSEDLGSQFTEIFIKQQENVTLLLSLLEEFDFHVRWPGVKLLTSLLKQLGPQVQQIILVSPMGVSRLMDLLADSREVIRNDGVLLLQALTRSNGAIQKIVAFENAFERLLDIISEEGNSDGGIVVEDCLILLQNLLKNNNSNQNFFKEGSYIQRMKPWFEVGDENSGWSAQKVTNLHLMLQLVRVLVSPTNPPGATSSCQKAMFQCGLLQQLCTILMATGVPADILTETINTVSEVIRGCQVNQDYFASVNAPSNPPRPAIVVLLMSMVNERQPFVLRCAVLYCFQCFLYKNQKGQGEIVSTLLPSTIDATGNSVSAGQLLCGGLFSTDSLSNWCAAVALAHALQENATQKEQLLRVQLATSIGNPPVSLLQQCTNILSQGSKIQTRVGLLMLLCTWLSNCPIAVTHFLHNSANVPFLTGQIAENLGEEEQLVQGLCALLLGISIYFNDNSLESYMKEKLKQLIEKRIGKENFIEKLGFISKHELYSRASQKPQPNFPSPEYMIFDHEFTKLVKELEGVITKAIYKSSEEDKKEEEVKKTLEQHDNIVTHYKNMIREQDLQLEELRQQVSTLKCQNEQLQTAVTQQVSQIQQHKDQYNLLKIQLGKDNQHQGSYSEGAQMNGIQPEEIGRLREEIEELKRNQELLQSQLTEKDSMIENMKSSQTSGTNEQSSAIVSARDSEQVAELKQELATLKSQLNSQSVEITKLQTEKQELLQKTEAFAKSVEVQGETETIIATKTTDVEGRLSALLQETKELKNEIKALSEERTAIKEQLDSSNSTIAILQTEKDKLELEITDSKKEQDDLLVLLADQDQKILSLKNKLKDLGHPVEEEDELESGDQEDEDDESEDPGKDLDHI
For B1, the binding entry in experiment [1] is “binds”; in experiment [2], “binds”; in experiment [3], “binds weakly”.
